In article PMC8041770:
Results are given in words; binding and its absence hold for the method and conditions named. Some results given as binding are weak or reduced against the parent protein; the word gives no strength. Sequences can lack the tags named with a protein. Values belong to the binder of their own block, whether it stands above or below them.

Key:
[1] = biological target: T1, yeast-displayed human LIFR CBM I-Ig-like-CBM II (Gln45 to Ser534) (human) (UniProt P42702); experiment: flow cytometry on cells; receptor displayed on yeast, soluble cytokine titrated in PBS with 1 mg/ml BSA; bound cytokine detected by fluorescent antibodies; apparent Kd by non-linear regression; only the binder purified
T1 sequence: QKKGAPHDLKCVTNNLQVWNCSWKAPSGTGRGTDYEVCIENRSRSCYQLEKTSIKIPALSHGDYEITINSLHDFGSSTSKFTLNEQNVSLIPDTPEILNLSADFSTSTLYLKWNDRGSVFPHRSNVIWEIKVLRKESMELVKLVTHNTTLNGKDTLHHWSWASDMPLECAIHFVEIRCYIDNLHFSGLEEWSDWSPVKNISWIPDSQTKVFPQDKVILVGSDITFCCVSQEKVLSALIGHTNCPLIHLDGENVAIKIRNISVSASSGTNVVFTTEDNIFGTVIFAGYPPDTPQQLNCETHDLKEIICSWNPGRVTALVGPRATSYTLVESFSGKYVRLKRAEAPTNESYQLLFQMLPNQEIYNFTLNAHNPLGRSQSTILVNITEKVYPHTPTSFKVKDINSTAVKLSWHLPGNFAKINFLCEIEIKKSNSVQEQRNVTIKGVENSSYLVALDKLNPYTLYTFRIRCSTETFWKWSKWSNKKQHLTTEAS

[2] = biological target: T2, yeast-displayed wild-type human LIFR CBM I–Ig-like–CBM II domains (Gln45 to Ser534) (human) (UniProt P42702); experiment: flow cytometry on cells; LIFR constructs displayed on yeast (EBY100), soluble tagged cytokine (LIF-His and others) in PBS with 1 mg/ml BSA, detected by antibody to the tag; gated on c-myc-positive yeast; apparent affinity by non-linear regression; only the binder purified
T2 sequence: T1 sequence

B3: recombinant human cardiotrophin-1-Fc (Fc fusion, UniProt Q16619 1-201)
chain: MSRREGSLEDPQTDSSVSLLPHLEAKIRQTHSLAHLLTKYAEQLLQEYVQLQGDPFGLPSFSPPRLPVAGLSAPAPSHAGLPVHERLRLDAAALAALPPLLDAVCRRQAELNPRAPRLLRRLEDAARQARALGAAVEALLAALGAANRGPRAEPPAATASAASATGVFPAKVLGLRVCGLYREWLSRTEGDLGQLLPGGSA
- binding [1]: binds weakly

B4: recombinant human cardiotrophin-1 Fc fusion (hCTF-1-Fc) (Fc fusion, UniProt Q16619 1-201)
chain: B3 chain
- binding [2]: binds weakly

Continued, values first:

- binding [1]: binds weakly
B1: recombinant human oncostatin M-His (ligand, UniProt P13725 26-221)
chain: AAIGSCSKEYRVLLGQLQKQTDLMQDTSRLLDPYIRIQGLDVPKLREHCRERPGAFPSEETLRGLGRRGFLQTLNATLGCVLHRLADLEQRLPKAQDLERSGLNIEDLEKLQMARPNILGLRNNIYCMAQLLDNSDTAEPTKAGRGASQPPTPTPASDAFQRKLEGCRFLHGYHRFMHSVGRVFSKWGESPNRSRR

- binding [2]: binds weakly
B2: recombinant human oncostatin M, His-tagged (hOSM-His) (ligand, UniProt P13725 26-221)
chain: B1 chain
